According to PubChem BioAssay AID743255 (National Center for Advancing Translational Sciences (NCATS), 2014):
The campaign covered roughly 390,000 compounds. About 910 (0.23%) were called active. Inconclusive means that the source gave no clear call. Such entries were picked first, then a sample of the others. The call rests on the fitted dose curve; in most records, active means well fitted inhibition curve with a large enough effect; inconclusive means small, poorly fitted or top-dose-only effect; inactive means no such curve, though single readings can be large or run the other way. Potencies of inconclusive entries are doubtful fits and often do not repeat.

Amino acid sequences for entries named in this document (tags omitted). A change or cut given only in a name is not applied to a line headed by its entry.
UniProt O94782: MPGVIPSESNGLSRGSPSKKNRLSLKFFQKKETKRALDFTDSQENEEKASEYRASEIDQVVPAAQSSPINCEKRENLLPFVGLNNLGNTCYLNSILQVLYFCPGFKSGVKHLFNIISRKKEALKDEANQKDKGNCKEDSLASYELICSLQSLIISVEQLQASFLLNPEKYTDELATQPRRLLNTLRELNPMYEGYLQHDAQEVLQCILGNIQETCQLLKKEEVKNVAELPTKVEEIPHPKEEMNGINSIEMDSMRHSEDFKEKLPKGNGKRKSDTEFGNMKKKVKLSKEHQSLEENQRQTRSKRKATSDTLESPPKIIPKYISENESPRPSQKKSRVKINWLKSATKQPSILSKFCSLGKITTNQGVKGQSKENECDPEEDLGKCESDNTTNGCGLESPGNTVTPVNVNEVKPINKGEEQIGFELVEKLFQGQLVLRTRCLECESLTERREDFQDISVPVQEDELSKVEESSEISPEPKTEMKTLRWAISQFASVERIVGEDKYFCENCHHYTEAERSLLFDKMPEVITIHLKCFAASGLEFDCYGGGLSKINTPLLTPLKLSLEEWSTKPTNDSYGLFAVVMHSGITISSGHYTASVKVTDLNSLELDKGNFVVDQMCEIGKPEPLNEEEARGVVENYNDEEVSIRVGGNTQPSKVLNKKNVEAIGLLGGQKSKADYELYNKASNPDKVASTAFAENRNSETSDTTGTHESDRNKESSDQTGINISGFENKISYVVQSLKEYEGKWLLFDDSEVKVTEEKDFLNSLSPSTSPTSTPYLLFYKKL

molecular target: Ubiquitin carboxyl-terminal hydrolase 1 (Homo sapiens) (UniProt O94782); assay: Inhibitors of USP1/UAF1: Primary Screen; conditions: recombinant USP1/UAF1, Ub-Rhodamine cleavage fluorescence; activity change, negative = inhibition: at 57.1 µM (top of the series); further: nearly all actives have a fitted effect of over 60% in size
In short: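 USP1/UAF1 complex at 1 nM was preincubated with compound for 15 min at room temperature, then Ub-Rho substrate (150nM final) was added. Fluorescence (480/540 nm) was read kinetically, 6 reads every 60 seconds.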
On the % scale 0 is the no-effect control and ±100 the full control effect; potency means the concentration at half of the fitted maximal effect.

| Structure (SMILES) | Potency | activity change, negative = inhibition |
| --- | --- | --- |
| CCOc1ccc(/C=N/NC(=O)c2ccoc2C)cc1OC | inconclusive: 31.6 µM [inhibitor, partial curve, poor fit] |  |
| COC(=O)c1ccc(CSCc2ccc(C(=O)OC)o2)o1 | inconclusive: 7.08 µM [inhibitor, single point] |  |
| N#CCC(N)=C(C#N)C#N | inconclusive: 35.5 µM [inhibitor, single point] |  |
| COc1ccc2nc3ccccc3nc2c1NC(=O)c1ccc(Cl)cc1Cl | inactive |  |
| N/C(=N\OC(=O)COc1ccc([N+](=O)[O-])cc1)c1cccnc1 | inactive |  |
| CCC(=O)N1CCc2cc(Br)cc(S(=O)(=O)CCC(=O)N3CCN(c4ccccc4OC)CC3)c21 | inconclusive: 3.55 µM [inhibitor, single point] |  |
| O=C(COC(=O)CC1CC2CCC1C2)Nc1cccc(S(=O)(=O)NC2=NCCCCC2)c1 (configuration not stated) | inactive |  |
| Cc1cc(C)n(-c2nc3ccccc3nc2Nc2ccc(C(C)C)cc2)n1 | inconclusive: 35.5 µM [inhibitor, partial curve, poor fit] |  |
| CCOCCCNC(=O)c1ccc2c(c1)NC(=O)C(CS(=O)(=O)Cc1ccc(F)cc1Cl)N2 (configuration not stated) | inconclusive: 15.8 µM [inhibitor, partial curve, poor fit] |  |
| O=C(CSc1ccccn1)Nc1ccc2c(c1)OCO2 | inactive |  |
| O=C(Nc1nnc(C2CC2)s1)C1Cc2ccccc2CN1S(=O)(=O)c1cccs1 (configuration not stated) | inconclusive: 39.8 µM [inhibitor, partial curve, poor fit] |  |
| CN(C)C(=O)c1cnc(-c2ccccc2)nc1-c1ccccc1 | inconclusive: 1.12 µM [inhibitor, full curve, poor fit] |  |
| Cc1cc(/C=C(/C#N)c2nc3ccccc3[nH]2)c(C)n1-c1ccccc1C(=O)O | inactive |  |
| CC(=O)Nc1ccc(Nc2ncnc3c2cnn3-c2ccccc2)cc1 | inactive |  |
| Cn1nc(-c2ccc(OCC(=O)Nc3cccc(C(F)(F)F)c3)cc2)c2ccccc2c1=O | inconclusive: 39.8 µM [inhibitor, partial curve, poor fit] |  |
| CC(=O)C1=C(C)NC(SCC(=O)c2ccc(Cl)cc2)=C(C#N)C1c1ccco1 (configuration not stated) | inconclusive: 31.6 µM [inhibitor, partial curve, poor fit] |  |
| COc1cc(/C=C2\SC(=S)N(NS(=O)(=O)c3ccccc3)C2=O)ccc1O | inconclusive: 39.8 µM [inhibitor, partial curve] |  |
| COc1ccc(CN2CCN(Cc3cn(C)nc3-c3ccccc3)CC2CCO)c(C)c1C (configuration not stated) | inconclusive: 50.1 µM [inhibitor, partial curve, poor fit] |  |
| C/C(=N\Nc1ccc(C(=O)O)cc1)c1ccc(Br)cc1 | inactive |  |
| CCOC(=O)NC1(NC(C)C)Oc2ccccc2O1 | inactive |  |
| COc1cccc2c(=O)n(CC(=O)Nc3ccc(F)cc3)ccc12 |  | inconclusive: -18.4% [inhibitor] |

Whole records as entered above:
COc1ccc(CN2CCN(Cc3cn(C)nc3-c3ccccc3)CC2CCO)c(C)c1C (configuration not stated) in the list: Potency: inconclusive: 50.1 µM [inhibitor, partial curve, poor fit]
O=C(CSc1ccccn1)Nc1ccc2c(c1)OCO2 in the list: Potency: inactive

Further structures follow:

| Structure (SMILES) | Potency | activity change, negative = inhibition |
| --- | --- | --- |
| COCCCNC(=O)c1ccc(Cn2c(=O)c3ccccc3n(CC(N)=O)c2=O)cc1 | inactive |  |
| CC(C)(C)C(=O)Nc1cc(-c2cccc(Br)c2)nn1-c1ccccc1 | inconclusive: 44.7 µM [inhibitor, partial curve, poor fit] |  |
| O=S(=O)(Nc1cccc2c1ccc1cccn12)c1cccs1 | inconclusive: 28.2 µM [inhibitor, partial curve] |  |
| O=CN1CC(=O)N(c2ccccc2)c2c([nH]c3ccccc23)C1 | inconclusive: 12.6 µM [inhibitor, partial curve, poor fit] |  |
| S=C(NN=Cc1ccccn1)Nc1ccccn1 | inconclusive: 44.7 µM [inhibitor, partial curve, poor fit] |  |
| Cc1nn(CC(=O)N/N=C/c2ccc(F)cc2)c(C)c1[N+](=O)[O-] | inconclusive: 0.708 µM [inhibitor, full curve] |  |
| COc1ccc(-c2cn3nc4c(nc3n2)CCCC4)cc1 | inconclusive: 14.1 µM [inhibitor, partial curve] |  |
| O=C(CSc1nnc(Cc2ccccc2)o1)N1CCCc2ccccc21 | inconclusive: 28.2 µM [inhibitor, single point] |  |
| CCOc1ccc(-c2n[nH]c(C)c2Oc2ccccc2OC)c(O)c1 | inactive |  |
| O=C(Cc1cccc(NC(=O)C2CCN(S(=O)(=O)c3cccc([N+](=O)[O-])c3)CC2)c1)Nc1cccc(C(=O)N2CCCCC2)c1 | inconclusive: 39.8 µM [inhibitor, single point] |  |
| CCCOc1ccc(C2Nc3cccc4cccc(c34)N2)cc1 | inconclusive: 44.7 µM [inhibitor, partial curve, poor fit] |  |
| O=C(Nc1cccc(Cl)c1Cl)c1cc2nc(-c3ccc(Cl)cc3)cc(C(F)(F)F)n2n1 | inactive |  |
| Cc1ccc(NC(=O)CSc2n[nH]c(-c3ccc(F)cc3)n2)cc1F | inconclusive: 0.631 µM [inhibitor, full curve, poor fit] |  |
| O=C1CC(C(=O)O)(c2ccccc2)c2cccc(F)c21 (configuration not stated) | inactive |  |
| C[C@H]1CN=C(N(C)C)N1CCCC1CCCCC1 | inconclusive: 3.98 µM [inhibitor, full curve] |  |
| O=C(CCc1nnc(Cc2c[nH]c3ccccc23)o1)NC(C1CC1)C1CC1 | inconclusive: 14.1 µM [inhibitor, partial curve, poor fit] |  |
| CCC(=O)Nc1ccc(-c2ccc(N3CCCCC3)nn2)cc1 | inconclusive: 5.62 µM [inhibitor, full curve] |  |
| CCOc1ccc(C(C)=O)cc1COC(=O)c1cccnc1SC | inconclusive: 0.316 µM [inhibitor, full curve, poor fit] |  |
| C#CCOCCOCCOCCNc1nc(N2CCN(C(=O)Cn3cc(CCCN=C(N)N)nn3)CC2)nc(N2CCN(C(=O)[C@H]([C@@H](C)O)n3cc(CCCCN)nn3)CC2)n1 | inconclusive: 50.1 µM [inhibitor, partial curve, poor fit] |  |
| COc1ccc(NC(=O)N2CCc3c(sc4c3CCCC4)C2c2ccccc2OC)cc1 (configuration not stated) | inactive |  |
| COc1ccc(-c2nc3scc(CCNS(=O)(=O)c4ccccc4F)n3n2)cc1 | inactive |  |
